Counter-ions that a name gives are not always drawn. The list shows a part of the results. The calls rarely recur for the same compound in another form.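 In K562 cells expressing nanoluciferase-fused kinases, luminescence was recorded at 4 h intervals between 2 and 18 h, normalized as percent of control with DMSO at 100% and a positive control at 0%. A significant (2 sigma) signal drop marks a time point as decreased. The authors' rule for a hit is not shown and takes in more than the number of time points.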
target: AURKB (UniProt Q96GD4); experiment: kinase-Nluc reporter destabilization hit call (1 = scored as downregulated) (binary); higher = compound decreases kinase abundance; conditions: K562; 2-18 h

The chains behind the UniProt entries cited, without tags or fusion partners.
UniProt Q96GD4, whole entry: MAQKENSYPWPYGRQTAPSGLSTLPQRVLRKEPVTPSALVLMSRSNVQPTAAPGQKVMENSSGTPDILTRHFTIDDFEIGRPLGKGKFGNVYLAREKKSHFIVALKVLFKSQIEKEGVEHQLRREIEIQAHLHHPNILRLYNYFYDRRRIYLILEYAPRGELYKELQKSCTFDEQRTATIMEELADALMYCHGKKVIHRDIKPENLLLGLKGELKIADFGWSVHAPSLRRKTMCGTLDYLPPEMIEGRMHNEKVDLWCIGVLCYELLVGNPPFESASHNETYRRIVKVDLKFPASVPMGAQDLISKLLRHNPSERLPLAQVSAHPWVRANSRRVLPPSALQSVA

kinase-Nluc reporter destabilization hit call, inactive:
O=c1cc(O)cc(/C=C/c2ccc(O)c(O)c2)o1 [Hispidin] (10 µM) 0
CC1CN(C(=O)Nc2ccc(Cl)c(Cl)c2)C(=Nc2ccc(F)cc2)S1 (stereo not drawn) (10 µM) 0
COc1cc2c[n+](C)c3c4cc5c(cc4ccc3c2cc1OC)OCO5 [Nitidine (chloride)] (2 µM) 0
Cc1c(CN2CCN(S(C)(=O)=O)CC2)sc2c(N3CCOCC3)nc(-c3cnc(N)nc3)nc12 (2.5 µM) 0
Cc1cc([C@H](C)Nc2ccccc2)c2oc(N3CCOCC3)cc(=O)c2c1 (10 µM) 0
O=C(CNC(=O)c1ccc(-c2ccccc2)cc1)NC1CCCc2ccccc21 (stereo not drawn) [TAO Kinase inhibitor 1] (10 µM) 0
Cn1cc(-c2ccc(CNc3cc(-c4cnc5cc(OCCCN6CCCC6)ccn45)ncn3)cc2)cn1 (10 µM) 0
Cc1ccc(S(=O)(=O)Nc2ccccc2C=Nc2ccccc2NS(=O)(=O)c2ccc(C)cc2)cc1 (10 µM) 0
O=C(/C=C/c1ccc(O)c(O)c1)c1ccc(O[C@@H]2O[C@H](CO)[C@@H](O)[C@H](O)[C@H]2O)c(O)c1O [Marein] (10 µM) 0
O=C(NCCCNc1nc(Nc2cccc(NC(=O)N3CCCC3)c2)ncc1I)c1cccs1 (2.5 µM) 0
CN(CCNc1ccc2ncc(-c3ccc(C(N)=O)cc3)n2n1)C(=O)OC(C)(C)C (10 µM) 0
C=C(C)C(=O)Nc1cccc(-c2ncnc3[nH]cc(C(=O)OCC)c23)c1 (10 µM) 0
COc1ccc(C(=C2C(=O)Nc3ccccc32)c2ccc(OC)cc2)cc1 (10 µM) 0
CN1CCN(c2ccc(C(=O)Nc3cc(-c4cccc(NS(=O)(=O)c5ccccc5)c4)[nH]n3)cc2)CC1 [BPR1J-097 Hydrochloride] (2.5 µM) 0
C=CC(=O)Nc1cc2c(Nc3ccc(OCc4ccccn4)c(Cl)c3)ncnc2cc1OCCN1CCOCC1 (10 µM) 0
Cc1c(NC(=O)OC[C@@H]2COCCN2)cn2ncnc(Nc3ccc4c(cnn4Cc4cccc(F)c4)c3)c12 (10 µM) 0
CNc1nc(Nc2cnn(C3CCN(C4COC4)CC3F)c2Cl)ncc1C(F)(F)F (stereo not drawn) (10 µM) 0
O=C(NCCO)c1ccc2c(c1)nc(Nc1cccc(Cl)c1)c1ccncc12 [CK2 inhibitor 2] (10 µM) 0
N#CC(c1ccnc(NCCc2cccnc2)n1)c1nc2ccccc2s1 (stereo not drawn) (10 µM) 0
CCN(CC)S(=O)(=O)c1ccc(OC)c(N2CCN(C(=O)c3ccc(F)cc3C(F)(F)F)CC2)c1 (10 µM) 0
CO[C@H]1C[C@@H]2CC[C@@H](C)[C@@](O)(O2)C(=O)C(=O)N2CCCC[C@H]2C(=O)O[C@H]([C@H](C)C[C@@H]2CC[C@@H](O)[C@H](OC)C2)CC(=O)[C@H](C)/C=C(\C)[C@@H](O)[C@@H](OC)C(=O)[C@H](C)C[C@H](C)/C=C/C=C/C=C/1C [Rapamycin] (10 µM) 0
CN(C)CCN(Cc1ccc(Cl)cc1)c1ccccn1 [Chloropyramine hydrochloride] (10 µM) 0
O=C(Nc1ccc(F)cc1F)[C@H](NC(=S)Nc1cc(C(F)(F)F)cc(C(F)(F)F)c1)c1ccccc1 (2.5 µM) 0
Cc1ccc(Nc2cc(-c3cccc(N4C(=O)c5ccccc5C4=O)c3)ncn2)cc1NS(C)(=O)=O (10 µM) 0
CC(C)(C)c1ccc(S(=O)(=O)Nc2ccc(-n3ccnc3)cc2)cc1 (10 µM) 0
CCc1cc(O)c(F)cc1-c1ccc2c(-c3nc4c([nH]3)CN(C3CCN(C)CC3)CC4)n[nH]c2c1 [JAK-IN-5 (hydrochloride)] (2 µM) 0
CC1=C2C(=O)O[C@@H](c3ccoc3)[C@]2(C)CCC1 [Fraxinellone] (10 µM) 0
COc1cc(C(N)=O)nc(-c2cccc(C#C[C@]3(O)CCN(C)C3=O)c2)c1 (10 µM) 0
COc1ncc(-c2nc(N3CCOCC3)nc3c(CN4CCC(C(C)(C)O)CC4)cc(F)cc23)cc1NS(C)(=O)=O [Linperlisib] (10 µM) 0
Fc1ccc(-c2nc(-c3ccccc3F)[nH]c2-c2ccncc2)cc1 (2.5 µM) 0
CC(C)=CC[C@H](O)C1=CC(=O)c2c(O)ccc(O)c2C1=O [(-)-Alkannin] (2.5 µM) 0
CC(C)c1cnc(-c2cc(Cl)ccc2F)cc1Nc1ccncc1C(=O)NC(CO)CO (2.5 µM) 0
Cn1cnc(-c2cc3nccc(Oc4ccc(NC(=S)NC(=O)Cc5ccccc5)cc4F)c3s2)c1 [MGCD-265 analog] (10 µM) 0
COC1(c2sc3c(N4CCOCC4)nc(-c4cnc(N)nc4)nc3c2C)COC1 (2.5 µM) 0
Cc1cc(NC(=O)c2cccc(NC(=O)/C=C/CN(C)C)c2)ccc1Nc1nccc(-c2cccnc2)n1 (10 µM) 0
O=C(/C=C/c1ccc(O)c(O)c1)OC1CC(OC(=O)/C=C/c2ccc(O)c(O)c2)(C(=O)O)CC(O)C1O (stereo not drawn) [1,3-Dicaffeoylquinic acid] (10 µM) 0
COc1ccc2c(c1O)OC(C)(C)c1c-2ccc2c1C(=O)N(c1ccc(C(=O)c3ccccc3)cc1)C2=O [Ampkinone] (10 µM) 0
CNC(=O)Nc1ccc(-c2cc(-c3ccnc(Nc4ccc(C)c(S(=O)(=O)N(C)C)c4)n3)ccn2)cc1 [hSMG-1 inhibitor 11e] (2.5 µM) 0

Some of these compounds in order of SMILES length, high to low:
kinase-Nluc reporter destabilization hit call, inactive:
Cc1c(NC(=O)OC[C@@H]2COCCN2)cn2ncnc(Nc3ccc4c(cnn4Cc4cccc(F)c4)c3)c12 (10 µM) 0
CN(CCNc1ccc2ncc(-c3ccc(C(N)=O)cc3)n2n1)C(=O)OC(C)(C)C (10 µM) 0
O=c1cc(O)cc(/C=C/c2ccc(O)c(O)c2)o1 [Hispidin] (10 µM) 0
